PubChem BioAssay AID1224826, NIAID – 2016
Purpose: 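Regulators of Tlr4 signalling leading to Tnf-alpha expression in macrophages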 (primary screen). Cells: RAW264.7 G9 macrophages from mouse bearing reporters for p65 (GFP) and the Tnf promoter (mCherry). Knock-down reagent: siRNA pool against mouse genes, 100 nM. Time to read-out: 16 h of LPS stimulation, after 2 days of siRNA transfection. Challenge: bacterial lipopolysaccharide (Salmonella minnesota R595), 10 ng/ml. Measured: 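Nuclear mCherry signal of the Tnf promoter reporter measured by imaging after background removal, scaled to each plate median and turned into robust z-scores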. Direction: Tnf reporter robust z-score: higher = stronger Tnf promoter reporter signal after LPS; Tnf reporter intensity: higher = stronger Tnf promoter reporter signal. Active means: 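Called active when robust z-score is at most -1.3, matching the median of the Tlr4 knock-down control, or over 3; control wells and wells with under 50 cells never active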. Meaning of the calls: active = Tnf reporter clearly lowered or raised; inactive = no clear change in Tnf reporter.
Shown is an unselected part of about 17,000 deposited reagents. Of all reagents, about 1,110 (6.6%) were called active. 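Active means lowered or raised reporter signal; replicate intensities are raw and not normalised per plate.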 A number with no mark means an inactive call. The numbers tell different reagents against one gene apart. A reagent listed more than once was tested more than once; the source does not tell the runs apart.

no.	target gene	reagent	Tnf reporter robust z-score	fewer than 50 cells in well	Tnf reporter intensity, replicate 1	Tnf reporter intensity, replicate 2
1	Nfatc3 (GeneID 18021)	1	-1.3 (active)	enough cells in well	171	95.8
2	Bhlhe23 (GeneID 140489)	1		fewer than 50 cells per well; well left out of calls	0	106
3	Pola1 (GeneID 18968)	1	0.58	enough cells in well	341	189
4	Srxn1 (GeneID 76650)	1	0.12	enough cells in well	265	99.6
5	Map1s (GeneID 270058)	1	0.97	enough cells in well	216	212
6	Vcp (GeneID 269523)	1		fewer than 50 cells per well; well left out of calls	0	146
7	Cd47 (GeneID 16423)	1	-0.67	enough cells in well	195	157
8	Cd47 (GeneID 16423)	2	-0.96	enough cells in well	121	129
9	Or52z13 (GeneID 259049)	1	-0.84	enough cells in well	64	92.6
10	Gclc (GeneID 14629)	1	0.17	enough cells in well	327	198
11	Clcn4 (GeneID 12727)	1	-0.1	enough cells in well	157	173
12	Tcf12 (GeneID 21406)	1	-0.97	enough cells in well	116	116
13	Map3k6 (GeneID 53608)	1	-1.27	enough cells in well	155	91.3
14	Adig (GeneID 246747)	1	-0.68	enough cells in well	86.4	126
15	Tnfrsf12a (GeneID 27279)	1	-1.87 (active)	enough cells in well	116	31
16	Phox2b (GeneID 18935)	1	-0.49	enough cells in well	203	163
17	Prpf39 (GeneID 328110)	1	-1.59 (active)	enough cells in well	61.9	57.9
18	Sar1b (GeneID 66397)	1	3.38 (active)	enough cells in well	302	245
19	Zfp944 (GeneID 319615)	1		fewer than 50 cells per well; well left out of calls	177	140
20	Or52e19b (GeneID 259073)	1		fewer than 50 cells per well; well left out of calls	53.2	183
21	Dppa1 (GeneID 347708)	1		fewer than 50 cells per well; well left out of calls	149	120
22	Lrp12 (GeneID 239393)	1	-0.45	enough cells in well	109	157
23	Commd7 (GeneID 99311)	1	0.94	enough cells in well	258	217
24	Cntnap5b (GeneID 241175)	1	-0.22	enough cells in well	96.1	151
25	Mthfsd (GeneID 234814)	1	-1.18	enough cells in well	37.5	95.5
26	Moap1 (GeneID 64113)	1	0.2	enough cells in well	248	247
27	Astn1 (GeneID 11899)	1	1.35	enough cells in well	230	257
28	Pms1 (GeneID 227099)	1	1.33	enough cells in well	413	229
29	Sypl2 (GeneID 17306)	1	-0.76	enough cells in well	123	124
30	Pomk (GeneID 74653)	1	0.27	enough cells in well	248	143
31	Pomk (GeneID 74653)	1		fewer than 50 cells per well; well left out of calls	246	54.9
32	Selenon (GeneID 74777)	1	2.38	enough cells in well	154	212
33	Rps6ka6 (GeneID 67071)	1		fewer than 50 cells per well; well left out of calls	124	108
34	Fam135a (GeneID 68187)	1	1.66	enough cells in well	284	118
35	Etfrf1 (GeneID 67636)	1	0.96	enough cells in well	272	75.9
36	Limk1 (GeneID 16885)	1	0.3	enough cells in well	219	174
37	Cyp3a16 (GeneID 13114)	1	0.66	enough cells in well	231	210
38	Gnb3 (GeneID 14695)	1	0.46	enough cells in well	243	349
39	Slc49a4 (GeneID 224132)	1	0.77	enough cells in well	266	285
40	Irf2 (GeneID 16363)	1	0.03	enough cells in well	199	183
41	Rab27b (GeneID 80718)	1	0.68	enough cells in well	369	259
42	Or56b1 (GeneID 258309)	1	0.73	enough cells in well	174	80.8
43	Vps53 (GeneID 68299)	1	0.01	enough cells in well	174	52.8
44	Ptprn2 (GeneID 19276)	1	2.16	enough cells in well	539	351
45	Arnt (GeneID 11863)	1	-0.37	enough cells in well	147	149
46	Bend6 (GeneID 320705)	1	-1.81 (active)	enough cells in well	69	62
47	Sack1f (GeneID 213956)	1	0.51	enough cells in well	248	150
48	Ears2 (GeneID 67417)	1		fewer than 50 cells per well; well left out of calls	161	39.8
49	Zbtb35 (GeneID 72465)	1		fewer than 50 cells per well; well left out of calls	74.8	79.7
50	Mesp1 (GeneID 17292)	1	-0.78	enough cells in well	158	92.7
51	Stk32a (GeneID 269019)	1	-0.1	enough cells in well	119	76
52	Atox1 (GeneID 11927)	1		fewer than 50 cells per well; well left out of calls	39.1	55
53	Tiparp (GeneID 99929)	1	0.41	enough cells in well	281	142
54	Cxcl11 (GeneID 56066)	1	0.67	enough cells in well	331	205
55	Mvk (GeneID 17855)	1	-0.41	enough cells in well	173	135
56	Armc10 (GeneID 67211)	1	0	enough cells in well	272	63.6
57	H2-Q1 (GeneID 15006)	1	-0.08	enough cells in well	194	216
58	Nck1 (GeneID 17973)	1	-0.03	enough cells in well	311	162

Entries above called active (5):
target gene	reagent	Tnf reporter robust z-score	fewer than 50 cells in well	Tnf reporter intensity, replicate 1	Tnf reporter intensity, replicate 2
Nfatc3 (GeneID 18021)	1	-1.3 (active)	enough cells in well	171	95.8
Tnfrsf12a (GeneID 27279)	1	-1.87 (active)	enough cells in well	116	31
Prpf39 (GeneID 328110)	1	-1.59 (active)	enough cells in well	61.9	57.9
Sar1b (GeneID 66397)	1	3.38 (active)	enough cells in well	302	245
Bend6 (GeneID 320705)	1	-1.81 (active)	enough cells in well	69	62
